Test results published in US10905680B2, “Methods of treatment for cholestatic and fibrotic diseases” (Genfit, priority 2016, dated 2021).
At least one compound was matched to its structure with a doubt left.

Experiments:
OFA S; Dawley rats = experiment: CCl4-induced liver injury model, circulating total bile acids; type: in vivo, rat; conditions: CCl4 twice weekly for 3 weeks, NTZ in diet 10 or 30 mg/kg/day
[1] = tested on: human primary hepatic stellate cells (hHSC); experiment: TGFβ1-induced expression of α-SMA protein in human HSC (ELISA); type: cell-based; conditions: TGFβ1 1 ng/ml, 48 hours
Description: Serum-deprived HSC were preincubated for 1 hour with NTZ (A) or TZ (B) before the activation with the profibrogenic cytokine TGFβ1 (1 ng/ml). After 48 hours of incubation, the expression of α-SMA was measured by ELISA. The obtained values were transformed into percentage inhibition over TGFβ1 control. Data are presented as mean (triplicates)±standard deviation (SD). Statistical analyses were performed by one-way ANOVA followed by Bonferroni post-hoc tests, using Sigma Plot 11.0 software. [*: p<0.05; **: p<0.01; ***: p<0.001 (comparison versus TGFβ1 1 ng/mL group)]. The curve fitting and the calculation of half maximal inhibitory concentration (IC50) were performed with XLFit software 5.3.1.3. The human primary hepatic stellate cells (hHSC) (Innoprot) were cultured in STeCM medium (ScienCell cat #5301) that was supplemented with 2% fetal bovine serum (FBS, ScienCell cat #0010), 1% penicillin/streptomycin (ScienCell cat #0503) and stellate cell growth supplement (SteCGS; ScienCell cat #5352). Cell culture flasks were coated with Poly-L Lysine (Sigma cat # P4707) for a better adherence. The human primary hepatic stellate cells (hHSC) (Innoprot) were cultured under standard conditions, as described above. […] The level of α-SMA was measured using a Sandwich ELISA. […]

[2] = tested on: human renal interstitial fibroblasts (HRIF); experiment: TGFβ1-induced expression of α-SMA protein in human renal fibroblasts (ELISA); type: cell-based; conditions: TGFβ1 3 ng/ml, 48 hours
Description: Serum-deprived Human Renal Interstitial Fibroblasts (HRIF) were preincubated for 1 hour with NTZ (A) or TZ (B) before the activation with the profibrogenic cytokine TGFβ1 (3 ng/ml). After 48 hours of incubation, the expression of α-SMA was measured by ELISA. The obtained values were normalized over TGFβ1 control. Data are presented as mean (quadruplicates)±SEM (Standard Error of Mean). […] For the activation experiments with TGFβ1, the HRIF were plated at a density of 6.5×10^3 cells per well in 384-well plates. The next day, cell culture medium was removed, and cells were washed with PBS (Invitrogen cat #14190). HRIF were deprived for 24 hours in serum-free, and FGS-free medium. For the treatments with NTZ or TZ, the serum-deprived HRIF were preincubated for 1 hour with the compounds followed by addition of the profibrogenic stimuli TGFβ1 (PeproTech cat #100-21, 3 ng/mL) in serum-free, -FGS-free medium for an additional 48 hour period. Finally, the cells were washed with PBS (Invitrogen, cat #14190) before the addition of 30 μl of lysis buffer (CelLytic™ MT reagent; Sigma #C3228). Plates were then incubated for 30 min on ice using a plate shaker, and subsequently stored at −20° C. The level of α-SMA was measured using a Sandwich ELISA. Briefly, the wells of an ELISA plate were first coated with the capture antibody (mouse monoclonal anti-ACTA2, Abnova) at 4° C. overnight. […]

CC(=O)Oc1ccccc1C(=O)Nc1ncc([N+](=O)[O-])s1 [NTZ, [2-[(5-nitro-1,3-thiazol-2-yl)carbamoyl]phenyl]ethanoate]
circulating TBA concentration (OFA S; Dawley rats): prevented the pathological increase | level of α-SMA in TGFβ-induced HSCs [1]: dose-dependently reduced | antifibrotic effects (α-SMA) in TGFβ-activated human renal interstitial fibroblasts [2]: significant and dose-dependent antifibrotic effects
